Experiment [1] addresses p/CAF (UniProt Q92831). Description: co-IP; co-immunoprecipitation; cells, antibodies and conditions not told.
Experiment [2] has as its target HBO1 (UniProt O95251). The description is as above.

Sequences of proteins named here, by UniProt entry; tags and fusion partners are left off.
UniProt Q92831: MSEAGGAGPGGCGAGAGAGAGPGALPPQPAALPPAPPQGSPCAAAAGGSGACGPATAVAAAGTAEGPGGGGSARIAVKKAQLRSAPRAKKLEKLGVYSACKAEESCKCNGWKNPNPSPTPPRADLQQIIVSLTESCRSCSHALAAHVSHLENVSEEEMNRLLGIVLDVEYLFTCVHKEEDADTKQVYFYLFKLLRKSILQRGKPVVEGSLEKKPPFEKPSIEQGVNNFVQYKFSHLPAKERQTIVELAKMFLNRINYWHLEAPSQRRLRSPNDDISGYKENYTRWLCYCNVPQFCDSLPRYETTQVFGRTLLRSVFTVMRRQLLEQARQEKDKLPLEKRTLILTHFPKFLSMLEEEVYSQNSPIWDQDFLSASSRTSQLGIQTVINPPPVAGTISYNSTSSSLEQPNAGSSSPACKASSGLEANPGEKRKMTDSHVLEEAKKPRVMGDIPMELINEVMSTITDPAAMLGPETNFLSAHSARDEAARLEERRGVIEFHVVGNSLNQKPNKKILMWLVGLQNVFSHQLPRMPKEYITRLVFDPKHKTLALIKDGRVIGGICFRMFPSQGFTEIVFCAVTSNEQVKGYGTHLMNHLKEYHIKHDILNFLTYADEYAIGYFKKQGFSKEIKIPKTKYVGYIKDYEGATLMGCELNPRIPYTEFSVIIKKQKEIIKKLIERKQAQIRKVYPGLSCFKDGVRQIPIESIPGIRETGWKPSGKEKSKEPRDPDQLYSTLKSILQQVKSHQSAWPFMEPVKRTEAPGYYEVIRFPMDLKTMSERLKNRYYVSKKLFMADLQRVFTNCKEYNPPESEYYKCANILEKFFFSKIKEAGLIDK
UniProt O95251: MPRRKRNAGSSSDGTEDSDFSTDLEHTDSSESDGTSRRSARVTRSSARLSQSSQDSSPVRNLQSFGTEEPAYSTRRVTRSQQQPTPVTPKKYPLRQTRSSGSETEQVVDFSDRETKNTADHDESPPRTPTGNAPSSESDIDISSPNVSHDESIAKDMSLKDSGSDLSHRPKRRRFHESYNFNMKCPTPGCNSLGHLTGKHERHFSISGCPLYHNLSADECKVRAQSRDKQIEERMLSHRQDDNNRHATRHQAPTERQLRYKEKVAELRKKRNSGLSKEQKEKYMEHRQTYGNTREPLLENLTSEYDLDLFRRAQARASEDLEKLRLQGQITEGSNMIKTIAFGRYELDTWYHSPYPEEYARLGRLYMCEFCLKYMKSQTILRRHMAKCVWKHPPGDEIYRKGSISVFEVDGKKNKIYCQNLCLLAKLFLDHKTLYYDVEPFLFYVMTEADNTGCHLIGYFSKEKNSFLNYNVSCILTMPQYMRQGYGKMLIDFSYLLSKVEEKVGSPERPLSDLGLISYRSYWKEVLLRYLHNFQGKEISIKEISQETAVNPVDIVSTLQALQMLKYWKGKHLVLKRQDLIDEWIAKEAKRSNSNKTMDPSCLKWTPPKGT
UniProt P0C746: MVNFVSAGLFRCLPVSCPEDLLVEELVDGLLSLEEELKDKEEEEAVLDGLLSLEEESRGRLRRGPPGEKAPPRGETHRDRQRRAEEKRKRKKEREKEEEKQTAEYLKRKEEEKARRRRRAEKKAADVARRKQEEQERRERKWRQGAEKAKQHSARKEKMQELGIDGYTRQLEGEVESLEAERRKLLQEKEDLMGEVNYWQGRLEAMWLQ

These are yes or no findings as the source states them, for the method shown. Binding seen in cells or lysates may run through a third protein. Some entries that bind do so weakly or less than the wild type.

For “HTLV-1 basic leucine zipper factor (HBZ) (from UniProt P0C746 1-209)”, the binding result in experiment [1] and in experiment [2] was “binds” in each case.
